# In patent publication US20220218746A1:
# The chains behind the UniProt entries cited, without tags or fusion partners. Residues count along the entry.
# UniProt Q02223, residues 1-54: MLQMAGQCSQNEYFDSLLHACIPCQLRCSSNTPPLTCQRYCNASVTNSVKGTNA
# No constants are given. Whether binding was seen depends on the method and setting. Some entries that bind do so weakly or less than the wild type.
# Biological target: BCMA antigen purchased from Beijing Yiqiao Shenzhou Ltd. (UniProt Q02223)
# Assay: phage ELISA on coated antigen, then SPR of purified single domain antibodies; values not given
binder,measurement,value
BCMA sdAb I (VHH) VHH: EVQLQASGGGLAQPGGSLRLSCAASGRTFSTYFMAWFRQPPGKGLEYVGGIRWSDGVPHYADSVKGRFTISRDNAKNTVYLQMNSLRAEDTAVYFCASRGIADGSDFGSYGQGTQVTVSS,binding,binds
